Source: PMC6203740
Numbering of substitutions follows the chain as printed. Numbers in names are those of the source. No constants are given. Whether binding was seen depends on the method and setting. For some assays here: In cells and extracts the contact can be indirect. Some results given as binding are weak or reduced against the parent protein; the word gives no strength. For some assays here: Tags and fused reporters may be left off the sequences shown.

By UniProt entry, the sequences of proteins in these tests, tags left out.
UniProt Q9QZL0: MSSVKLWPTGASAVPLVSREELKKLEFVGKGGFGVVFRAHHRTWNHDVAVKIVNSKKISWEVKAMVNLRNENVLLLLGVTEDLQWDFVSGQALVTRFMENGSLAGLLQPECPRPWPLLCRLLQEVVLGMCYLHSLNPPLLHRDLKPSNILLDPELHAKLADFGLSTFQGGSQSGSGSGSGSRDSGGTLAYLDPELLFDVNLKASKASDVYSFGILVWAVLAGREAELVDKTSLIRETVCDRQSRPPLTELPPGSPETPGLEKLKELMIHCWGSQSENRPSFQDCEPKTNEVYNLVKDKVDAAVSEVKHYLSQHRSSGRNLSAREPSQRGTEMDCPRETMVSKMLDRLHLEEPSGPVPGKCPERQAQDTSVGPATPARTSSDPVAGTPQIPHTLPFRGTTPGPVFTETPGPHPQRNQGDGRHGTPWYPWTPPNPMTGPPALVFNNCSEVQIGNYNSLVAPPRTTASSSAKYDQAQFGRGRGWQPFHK

T1: Myc-MLKL (murine mixed lineage kinase domain-like) (mouse) (UniProt Q9D2Y4)
T1 sequence: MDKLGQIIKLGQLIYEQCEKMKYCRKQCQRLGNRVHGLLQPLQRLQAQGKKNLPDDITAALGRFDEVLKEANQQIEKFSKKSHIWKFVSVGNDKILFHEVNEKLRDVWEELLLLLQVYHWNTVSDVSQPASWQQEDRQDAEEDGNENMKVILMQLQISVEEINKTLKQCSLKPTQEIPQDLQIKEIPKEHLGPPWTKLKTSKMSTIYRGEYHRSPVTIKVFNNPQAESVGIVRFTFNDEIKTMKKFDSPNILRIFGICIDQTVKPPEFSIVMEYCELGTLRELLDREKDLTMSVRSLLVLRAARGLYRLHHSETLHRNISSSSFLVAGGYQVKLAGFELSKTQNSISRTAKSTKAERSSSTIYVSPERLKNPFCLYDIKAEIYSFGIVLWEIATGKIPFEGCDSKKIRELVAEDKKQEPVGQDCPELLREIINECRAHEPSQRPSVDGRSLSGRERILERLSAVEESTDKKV

B1: MLKL Q343A (auto-activated form of murine MLKL) (protein, UniProt Q9D2Y4 1-472)
chain: T1 sequence with Q343A

How the values were obtained:
[1] = target: T1, Myc-MLKL (murine mixed lineage kinase domain-like) (mouse); assay: co-IP; HEK293T co-transfected with a FRET probe, Myc-MLKL and FLAG-RIPK3; 24 h after transfection IP with anti-Myc or control antibody; immunoblot
[2] = target: MLKL Q343A (auto-activated form of murine MLKL) (mouse) (UniProt Q9D2Y4); assay: SDS-PAGE under non-reducing conditions with immunoblot; Mlkl-/- MEFs-SMART/MLKL Q343A treated with Dox for the indicated times; lysates on non-reducing SDS-PAGE, blot with anti-MLKL

Row | Molecule | binding [1] | binding [2]
1 | FLAG-RIPK3 (murine receptor-interacting protein kinase 3) (from UniProt Q9QZL0 1-486) | binds | –
2 | B1 | – | binds
